Reference: the supplement of paper PMC3334620
Whole data set: some 33,000 sequences, median “E-score (-0.5 to 0.5)” near -0.0059, cut for the highest 2% near 0.26. This is one part of the list.

These sequences were tested against T1, Cin5 (UniProt P40917) (assay: PBM E-score (8-mer binding enrichment) (E-score (-0.5 to 0.5)); higher = stronger / more preferred TF binding). Conditions: protein concentration: 100 nM; construct: GST-full length.
T1 sequence: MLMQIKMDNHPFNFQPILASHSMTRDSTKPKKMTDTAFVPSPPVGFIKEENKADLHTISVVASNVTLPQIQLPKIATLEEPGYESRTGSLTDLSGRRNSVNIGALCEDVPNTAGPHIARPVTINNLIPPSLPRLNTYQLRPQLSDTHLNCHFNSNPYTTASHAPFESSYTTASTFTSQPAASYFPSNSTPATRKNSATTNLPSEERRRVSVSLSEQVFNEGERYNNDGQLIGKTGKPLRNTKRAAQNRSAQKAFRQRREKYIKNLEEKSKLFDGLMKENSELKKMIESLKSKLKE
Outline: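 Universal all-10-mer Agilent arrays, double-stranded by primer extension on fresh or once-stripped slides, were probed with about 100-200 nM GST-tagged yeast transcription factors made by PURExpress. Fluorescent anti-GST detected bound protein, and masliner normalised the scans. E-scores from the Universal PBM Analysis Suite were given to each ungapped eight-base word pooled with its reverse complement.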
In the case of CGAGCAGA, the “PBM E-score” value is reported as -0.17. In the case of GCGACCGA, the “PBM E-score” value is reported as 0.0144. With AACTTCCC the “PBM E-score” value was 0.0423. For GGGTTAAA, the “PBM E-score” value was -0.0784. In the case of AATGGAGC, the “PBM E-score” value is reported as -0.0442. For GGTCCGAC, the “PBM E-score” value was -0.153. For CAGTTTCG, the “PBM E-score” value was 0.00376. For CTTCTGTA, the “PBM E-score” value was -0.0475. With CCTCCCCG the “PBM E-score” value was 0.0326. CGATCAAA was tested, and the “PBM E-score” value was -0.00971. In the case of AGGAATTA, the “PBM E-score” value is reported as 0.208. In the case of TAACCGCA, the “PBM E-score” value is reported as 0.24. ATGCTTGG was tested, and the “PBM E-score” value was -0.0358. In the case of CTACGAGA, the “PBM E-score” value is reported as -0.0322. In the case of ATCGATCC, the “PBM E-score” value is reported as -0.0004. In the case of CATGCGCG, the “PBM E-score” value is reported as -0.00114. With AAGAAGTC the “PBM E-score” value was -0.0774. For ATTTTTCA, the “PBM E-score” value was 0.131. For AGAAGAGA, the “PBM E-score” value was -0.0776. In the case of CAACTCAG, the “PBM E-score” value is reported as -0.023. With AGATGCAT the “PBM E-score” value was 0.189. In the case of ACCTTACG, the “PBM E-score” value is reported as 0.0253. With GGATATTA the “PBM E-score” value was 0.143. For CGTGTGCC, the “PBM E-score” value was -0.197. For GCAGCCCC, the “PBM E-score” value was -0.0754. In the case of ATGGCGCG, the “PBM E-score” value is reported as -0.0464. For AGGAGACC, the “PBM E-score” value was -0.201. In the case of CCGTGCGC, the “PBM E-score” value is reported as -0.0601. In the case of CATGATGC, the “PBM E-score” value is reported as 0.0839. With AACGTCGG the “PBM E-score” value was -0.0613. In the case of ATAGCTTA, the “PBM E-score” value is reported as 0.154. ATGGCTAG was tested, and the “PBM E-score” value was 0.0457. With ATCCTCTA the “PBM E-score” value was -0.16. In the case of GGTAAGAA, the “PBM E-score” value is reported as 0.011. With ATTTTCAG the “PBM E-score” value was 0.212. With TCGACAAA the “PBM E-score” value was 0.0681. With GCTAGCCC the “PBM E-score” value was -0.131. CTAGCGGA was tested, and the “PBM E-score” value was -0.092. With GTAAACCA the “PBM E-score” value was 0.0303. CACGCGGG was tested, and the “PBM E-score” value was -0.182. CGAGGCTC was tested, and the “PBM E-score” value was -0.255. ATTCGTAG was tested, and the “PBM E-score” value was 0.016. CTCCCCAC was tested, and the “PBM E-score” value was -0.108. With AGTAATGC the “PBM E-score” value was 0.0695. For AACCGAGA, the “PBM E-score” value was 0.103. GCTTCGCC was tested, and the “PBM E-score” value was -0.297. With CCTTATCG the “PBM E-score” value was -0.0177. For AGGTACGC, the “PBM E-score” value was 0.0585. For AACGCTGG, the “PBM E-score” value was -0.115. In the case of ACGTATTC, the “PBM E-score” value is reported as 0.112. In the case of AGCCGAAT, the “PBM E-score” value is reported as 0.086. CATATCAA was tested, and the “PBM E-score” value was 0.228. CGCTAGGC was tested, and the “PBM E-score” value was -0.204. In the case of GGCCCCAA, the “PBM E-score” value is reported as -0.0478. With CAGGTATA the “PBM E-score” value was 0.0165. In the case of AAGATAGA, the “PBM E-score” value is reported as 0.0499. In the case of ACTTGCGG, the “PBM E-score” value is reported as -0.21. In the case of ACCAGCTG, the “PBM E-score” value is reported as -0.0831. For AAGTCAGG, the “PBM E-score” value was 0.0721. TACGTACA was tested, and the “PBM E-score” value was 0.229. With TCGCAAGA the “PBM E-score” value was -0.0527. In the case of TCCCCTAA, the “PBM E-score” value is reported as 0.0848. CTTGACGC was tested, and the “PBM E-score” value was -0.162. For GTCGGAGA, the “PBM E-score” value was -0.142. For ACTGCTGC, the “PBM E-score” value was 0.0432. For ATCCAGAG, the “PBM E-score” value was 0.161. For AGTCAGCG, the “PBM E-score” value was 0.0287. In the case of GAACCACC, the “PBM E-score” value is reported as 0.0658. With GTGCAAAA the “PBM E-score” value was -0.037. For AAATTCAG, the “PBM E-score” value was 0.0731. For CCATAGGA, the “PBM E-score” value was -0.0839. TCCAGGAA was tested, and the “PBM E-score” value was -0.0393. ACCAATAA was tested, and the “PBM E-score” value was 0.0617. CTGCGTAA was tested, and the “PBM E-score” value was 0.0291. With CACCCAAA the “PBM E-score” value was 0.115. CTTTTGCA was tested, and the “PBM E-score” value was 0.0331. AACCTAGC was tested, and the “PBM E-score” value was -0.0341. In the case of CCGTTGGA, the “PBM E-score” value is reported as -0.123. AGAGAGAG was tested, and the “PBM E-score” value was -0.0167. With ATAACCCA the “PBM E-score” value was 0.0804. GATTGTCA was tested, and the “PBM E-score” value was 0.0599. For TCCGACGA, the “PBM E-score” value was 0.0651. For TGCGTCAA, the “PBM E-score” value was -0.0866. CAATTCCC was tested, and the “PBM E-score” value was 0.112. With CATTGCAC the “PBM E-score” value was 0.145. ACATTAAT was tested, and the “PBM E-score” value was 0.106. For CTTCAATC, the “PBM E-score” value was -0.0206. CGGAGGGC was tested, and the “PBM E-score” value was -0.163. For AAAATGAC, the “PBM E-score” value was 0.0872. For ACCCTCGA, the “PBM E-score” value was -0.204. With GTACAAGA the “PBM E-score” value was -0.059. For AGCTGTTA, the “PBM E-score” value was 0.00406. CAAATAGA was tested, and the “PBM E-score” value was 0.2. For CTCCTAGA, the “PBM E-score” value was -0.158. With AGAACCCT the “PBM E-score” value was -0.209. For ATTGAGCA, the “PBM E-score” value was 0.0163. AAGCTGTA was tested, and the “PBM E-score” value was 0.202. CGCAGTCA was tested, and the “PBM E-score” value was -0.091. ACATGACT was tested, and the “PBM E-score” value was -0.0712. With ACCTGTGG the “PBM E-score” value was -0.18. For CTATTGCA, the “PBM E-score” value was 0.0887. In the case of ACGCATAC, the “PBM E-score” value is reported as 0.00499. In the case of ACCGTCGC, the “PBM E-score” value is reported as -0.0621. For AGTTTCAC, the “PBM E-score” value was 0.0197. In the case of CGCTGGAC, the “PBM E-score” value is reported as -0.209. AGAGTGGG was tested, and the “PBM E-score” value was -0.13. ACTTCCGC was tested, and the “PBM E-score” value was 0.0231. With ATAATCGA the “PBM E-score” value was 0.178. In the case of CAGTTGGG, the “PBM E-score” value is reported as -0.121. With CAGTTCCC the “PBM E-score” value was 0.0355. For ACGGCTGC, the “PBM E-score” value was -0.192. CTCAGGAG was tested, and the “PBM E-score” value was -0.198. CAGACTAG was tested, and the “PBM E-score” value was -0.237. In the case of CCATCGAA, the “PBM E-score” value is reported as 0.0633. In the case of CACCAGTG, the “PBM E-score” value is reported as -0.0701. For CACGGAGG, the “PBM E-score” value was -0.173. CATACGGG was tested, and the “PBM E-score” value was -0.166. In the case of CAAGTATA, the “PBM E-score” value is reported as -0.0347. With AGGGAAGA the “PBM E-score” value was -0.252. With AGCCGTCG the “PBM E-score” value was -0.0268. With AAATACTG the “PBM E-score” value was 0.161. With ACTGCGCG the “PBM E-score” value was -0.0752. In the case of GACTATTA, the “PBM E-score” value is reported as 0.0205. TTTAAAAA was tested, and the “PBM E-score” value was -0.124. ATGGATAA was tested, and the “PBM E-score” value was 0.239. CATGTAGG was tested, and the “PBM E-score” value was -0.101. In the case of AGGGAATC, the “PBM E-score” value is reported as 0.111. In the case of ATAACGAT, the “PBM E-score” value is reported as 0.0688. For ATGGCAGC, the “PBM E-score” value was -0.0278. With CTCACTGC the “PBM E-score” value was -0.0229. In the case of AGGAAAAC, the “PBM E-score” value is reported as -0.00842. ACCACGAA was tested, and the “PBM E-score” value was -0.0559. For ACGTGATG, the “PBM E-score” value was 0.139. In the case of AAACAGCG, the “PBM E-score” value is reported as 0.224. With GTGGACGA the “PBM E-score” value was -0.038. In the case of CGTACCAA, the “PBM E-score” value is reported as 0.0416. In the case of CTCTGTGA, the “PBM E-score” value is reported as 0.0243. AGGTGAGA was tested, and the “PBM E-score” value was 0.0308. With CTAGTACA the “PBM E-score” value was 0.0849. With GGCTATTA the “PBM E-score” value was 0.0403. With ATCCGAAC the “PBM E-score” value was 0.0693. AGAGCCGA was tested, and the “PBM E-score” value was 0.058. With AGCTTTCC the “PBM E-score” value was -0.0292. CCAATTGG was tested, and the “PBM E-score” value was 0.0961. In the case of CCGTTTTA, the “PBM E-score” value is reported as 0.03. With GACTAACC the “PBM E-score” value was -0.0832. GCTGCTTA was tested, and the “PBM E-score” value was 0.16. With ACATAGTG the “PBM E-score” value was 0.0936. In the case of ACGAAACG, the “PBM E-score” value is reported as 0.0719. For GGTGGATA, the “PBM E-score” value was -0.0345. With CACTCAAC the “PBM E-score” value was 0.217. For TAGATAAA, the “PBM E-score” value was 0.154. With CGCTCGAA the “PBM E-score” value was -0.06. With GACAAGTA the “PBM E-score” value was 0.0326. For ACAAACCG, the “PBM E-score” value was 0.0156. For AAACCACA, the “PBM E-score” value was 0.16. In the case of AGAGCTTC, the “PBM E-score” value is reported as -0.138. With AGGTCCTG the “PBM E-score” value was -0.142. AGACGTCC was tested, and the “PBM E-score” value was -0.0972. For ATCTGAAA, the “PBM E-score” value was 0.0363. With CCCTGTAG the “PBM E-score” value was -0.0847. In the case of CACCGGGG, the “PBM E-score” value is reported as -0.28. With GATACTGC the “PBM E-score” value was 0.186. In the case of ATTCACTG, the “PBM E-score” value is reported as -0.0867. With AGCGTGCA the “PBM E-score” value was 0.103. In the case of CTAATGGC, the “PBM E-score” value is reported as -0.0137. CGGTGGGA was tested, and the “PBM E-score” value was -0.0783. With CCCACAAC the “PBM E-score” value was -0.106. ATAGGCCA was tested, and the “PBM E-score” value was 0.0284. For CACTCGCA, the “PBM E-score” value was -0.00783. For AAAACTCT, the “PBM E-score” value was -0.184. With AATCAGTC the “PBM E-score” value was 0.0788.
